Results are given in words; binding and its absence hold for the method and conditions named. For part of these data: Binding seen in cells or lysates may run through a third protein. Some results given as binding are weak or reduced against the parent protein; the word gives no strength. For part of these data: Tags and fused reporters may be left off the sequences shown.
T1: cytoplasmic domain of Perforin-2 (P2), yeast two hybrid bait (UniProt A1L314)
T1 sequence (looked up): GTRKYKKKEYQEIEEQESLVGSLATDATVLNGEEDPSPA

T2: P-2-GFP fusion protein (Perforin-2 with GFP fused to the C-terminus of the cytoplasmic domain) (murine) (UniProt A1L314)
T2 sequence (looked up): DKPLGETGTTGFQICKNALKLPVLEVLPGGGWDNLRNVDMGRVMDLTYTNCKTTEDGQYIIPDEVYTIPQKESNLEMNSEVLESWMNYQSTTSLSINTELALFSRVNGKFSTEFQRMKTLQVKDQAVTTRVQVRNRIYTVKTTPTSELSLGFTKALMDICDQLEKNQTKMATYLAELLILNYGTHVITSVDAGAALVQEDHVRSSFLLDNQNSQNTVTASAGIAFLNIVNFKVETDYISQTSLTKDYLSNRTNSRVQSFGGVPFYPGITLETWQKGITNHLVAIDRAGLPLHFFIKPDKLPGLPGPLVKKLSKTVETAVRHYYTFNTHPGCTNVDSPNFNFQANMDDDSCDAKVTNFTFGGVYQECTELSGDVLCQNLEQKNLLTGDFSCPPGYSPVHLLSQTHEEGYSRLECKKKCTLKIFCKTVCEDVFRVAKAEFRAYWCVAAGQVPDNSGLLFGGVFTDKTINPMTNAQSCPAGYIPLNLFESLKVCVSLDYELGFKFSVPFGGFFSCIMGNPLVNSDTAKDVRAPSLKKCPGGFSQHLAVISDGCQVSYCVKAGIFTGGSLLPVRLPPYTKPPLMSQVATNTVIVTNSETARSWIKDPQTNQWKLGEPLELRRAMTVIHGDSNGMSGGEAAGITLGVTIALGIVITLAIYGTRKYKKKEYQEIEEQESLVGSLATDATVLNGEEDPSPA


How the values were obtained:
[1] = target: T1, cytoplasmic domain of Perforin-2 (P2), yeast two hybrid bait; experiment: yeast two hybrid
[2] = target: T2, P-2-GFP fusion protein (Perforin-2 with GFP fused to the C-terminus of the cytoplasmic domain) (murine); experiment: co-immunoprecipitation from P-2-GFP transfected RAW cells
[3] = target: T2, P-2-GFP fusion protein (Perforin-2 with GFP fused to the C-terminus of the cytoplasmic domain) (murine); experiment: immunoprecipitation with anti-GFP, pull down of RASA2

binding [1]	binding [2]	binding [3]	Binder
binds	–	–	P21 RAS activator2/gap1m (sfpi1) (RASA2), yeast two hybrid clone (protein, UniProt P58069 2-847, looked up) AAAAPAAAASPEAPAVSGSADPETGDEDSREVRVLQSLRGRIYEAKNLLPYLGPNKMRDCFCTINLDQEEVYRTQVVEKSLSPYFSEEFYFEIPRTFQYLSFYVYDKNVLQRDLRIGKVAIKKEDLCSHSGKETWFSLQPIDSNSEVQGKVHLELRLNELITENGTVCQQLVVHIKACHGLPLINGQSCDPYATVSLVGPSRNDQKKTKVKKKTSNPQFNEVFYFEVTRSSSYSRKSQFQVEEEDIEKLEIRIDLWNNENLVQDVFLGEIKVPVNVLRSDSFHQAWYLLQPRDNGNKSSKTDDLGSLLLTLCYTEDCVLPSEYYGPLKTLLLKSPDVQPVSASAAYILGEICQDQKDAVLPLVRLLLHHNKLVPFITAVAELDLKDTPDANAIFRGNSLATQCLTEMMKIVGGHYLKVTLKPVLDEICESSKSCEIDPVKLKEGDNVENNKENLYYYVDKVFNTIVGSSVSCPTVMCDIFYSLRQMAAKKFPNHPHVQYSAVSSFVFLRFFAVAILSPHAFHLRPHYPDTQTVRTLTLISKTIQIIGNWGCQSRKKSRFKKSVMCEFLKMFQEERYFTDVKKFLDEISSTETKESSGTSEPVHLKEGEMYKRAQGRTRIGKKNFKKRWFCLTSRELTYHRQQGKDAIYTIPVKNILAVEKLEEGSFNKKNMFQVIHTEKTLYIQANNCVEANEWIDVLCRVSRCNHNRLSSFHPSAYLNGNWLCCQETSESTPGCKPCTAGIPADIQIDIDEDRETERIYSIFTLSLLKLQKMEETCGSIAVYQGPQKEPGYSKFTIEDSVATFKTIQQIKSTIEKLDEPHEKYRKKRSSSAKYGSKENPIVGKIS
–	binds	binds	RASA2 of RAW cells (protein, UniProt P58069 2-847, looked up) AAAAPAAAASPEAPAVSGSADPETGDEDSREVRVLQSLRGRIYEAKNLLPYLGPNKMRDCFCTINLDQEEVYRTQVVEKSLSPYFSEEFYFEIPRTFQYLSFYVYDKNVLQRDLRIGKVAIKKEDLCSHSGKETWFSLQPIDSNSEVQGKVHLELRLNELITENGTVCQQLVVHIKACHGLPLINGQSCDPYATVSLVGPSRNDQKKTKVKKKTSNPQFNEVFYFEVTRSSSYSRKSQFQVEEEDIEKLEIRIDLWNNENLVQDVFLGEIKVPVNVLRSDSFHQAWYLLQPRDNGNKSSKTDDLGSLLLTLCYTEDCVLPSEYYGPLKTLLLKSPDVQPVSASAAYILGEICQDQKDAVLPLVRLLLHHNKLVPFITAVAELDLKDTPDANAIFRGNSLATQCLTEMMKIVGGHYLKVTLKPVLDEICESSKSCEIDPVKLKEGDNVENNKENLYYYVDKVFNTIVGSSVSCPTVMCDIFYSLRQMAAKKFPNHPHVQYSAVSSFVFLRFFAVAILSPHAFHLRPHYPDTQTVRTLTLISKTIQIIGNWGCQSRKKSRFKKSVMCEFLKMFQEERYFTDVKKFLDEISSTETKESSGTSEPVHLKEGEMYKRAQGRTRIGKKNFKKRWFCLTSRELTYHRQQGKDAIYTIPVKNILAVEKLEEGSFNKKNMFQVIHTEKTLYIQANNCVEANEWIDVLCRVSRCNHNRLSSFHPSAYLNGNWLCCQETSESTPGCKPCTAGIPADIQIDIDEDRETERIYSIFTLSLLKLQKMEETCGSIAVYQGPQKEPGYSKFTIEDSVATFKTIQQIKSTIEKLDEPHEKYRKKRSSSAKYGSKENPIVGKIS
